Test results: patent publication EP1169641B1, “PROTEOME MINING” (THE UNIVERSITY OF VIRGINIA PATENT FOUNDATION, priority 1999, dated 2000)
At least one structure is not confirmed: it was looked up by name or label, or the drawing left a doubt.

How the values were obtained:
ADE2 = target: T1, ADE2 (Oryctolagus cuniculus, UniProt G1T2V2); experiment: Competitive elution from gamma-phosphate linked ATP Sepharose loaded with skeletal muscle extract, mixed peptide sequencing; type: binding, rabbit
T1 construct: from tissue; host or cells: skeletal muscle extract
T1 sequence (G1T2V2 1-425): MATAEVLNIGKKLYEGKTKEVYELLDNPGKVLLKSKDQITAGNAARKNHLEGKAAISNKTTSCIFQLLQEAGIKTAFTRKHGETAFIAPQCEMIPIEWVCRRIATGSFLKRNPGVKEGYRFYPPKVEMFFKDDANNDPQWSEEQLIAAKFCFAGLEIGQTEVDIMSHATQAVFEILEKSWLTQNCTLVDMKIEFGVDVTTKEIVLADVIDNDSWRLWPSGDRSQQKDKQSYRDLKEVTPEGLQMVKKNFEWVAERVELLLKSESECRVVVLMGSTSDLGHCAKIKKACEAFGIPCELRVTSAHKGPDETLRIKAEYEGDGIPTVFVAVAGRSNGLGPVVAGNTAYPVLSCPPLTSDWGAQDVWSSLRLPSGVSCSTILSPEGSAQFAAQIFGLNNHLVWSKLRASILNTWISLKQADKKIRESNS

[1] = tested on: adenine nucleotide binding proteins; experiment: Competitive elution from gamma-phosphate linked ATP Sepharose loaded with skeletal muscle extract: other bound proteins; details: elution with 1mM GA

## COC1=C2C[C@@H](C)C[C@H](OC)[C@H](O)[C@@H](C)/C=C(\C)[C@H](OC(N)=O)[C@@H](OC)/C=C\C=C(/C)C(=O)NC(=CC1=O)C2=O [GA, geldanamycin]
ADE2; ATP Sepharose loaded with skeletal muscle extract
  concentration of GA that almost exclusively eluted ADE2: 10 nM
ADE2; elution with 10 nM GA
  ADE2 in the gel (PTH analysis): 2 pmols
[1]
  other proteins eluted: no other proteins were eluted
